Chains of the proteins cited; added tags and fusions are not shown. Lines headed by an entry give the natural chain unless they say otherwise; changes in a name come on top.
UniProt M9PGC5: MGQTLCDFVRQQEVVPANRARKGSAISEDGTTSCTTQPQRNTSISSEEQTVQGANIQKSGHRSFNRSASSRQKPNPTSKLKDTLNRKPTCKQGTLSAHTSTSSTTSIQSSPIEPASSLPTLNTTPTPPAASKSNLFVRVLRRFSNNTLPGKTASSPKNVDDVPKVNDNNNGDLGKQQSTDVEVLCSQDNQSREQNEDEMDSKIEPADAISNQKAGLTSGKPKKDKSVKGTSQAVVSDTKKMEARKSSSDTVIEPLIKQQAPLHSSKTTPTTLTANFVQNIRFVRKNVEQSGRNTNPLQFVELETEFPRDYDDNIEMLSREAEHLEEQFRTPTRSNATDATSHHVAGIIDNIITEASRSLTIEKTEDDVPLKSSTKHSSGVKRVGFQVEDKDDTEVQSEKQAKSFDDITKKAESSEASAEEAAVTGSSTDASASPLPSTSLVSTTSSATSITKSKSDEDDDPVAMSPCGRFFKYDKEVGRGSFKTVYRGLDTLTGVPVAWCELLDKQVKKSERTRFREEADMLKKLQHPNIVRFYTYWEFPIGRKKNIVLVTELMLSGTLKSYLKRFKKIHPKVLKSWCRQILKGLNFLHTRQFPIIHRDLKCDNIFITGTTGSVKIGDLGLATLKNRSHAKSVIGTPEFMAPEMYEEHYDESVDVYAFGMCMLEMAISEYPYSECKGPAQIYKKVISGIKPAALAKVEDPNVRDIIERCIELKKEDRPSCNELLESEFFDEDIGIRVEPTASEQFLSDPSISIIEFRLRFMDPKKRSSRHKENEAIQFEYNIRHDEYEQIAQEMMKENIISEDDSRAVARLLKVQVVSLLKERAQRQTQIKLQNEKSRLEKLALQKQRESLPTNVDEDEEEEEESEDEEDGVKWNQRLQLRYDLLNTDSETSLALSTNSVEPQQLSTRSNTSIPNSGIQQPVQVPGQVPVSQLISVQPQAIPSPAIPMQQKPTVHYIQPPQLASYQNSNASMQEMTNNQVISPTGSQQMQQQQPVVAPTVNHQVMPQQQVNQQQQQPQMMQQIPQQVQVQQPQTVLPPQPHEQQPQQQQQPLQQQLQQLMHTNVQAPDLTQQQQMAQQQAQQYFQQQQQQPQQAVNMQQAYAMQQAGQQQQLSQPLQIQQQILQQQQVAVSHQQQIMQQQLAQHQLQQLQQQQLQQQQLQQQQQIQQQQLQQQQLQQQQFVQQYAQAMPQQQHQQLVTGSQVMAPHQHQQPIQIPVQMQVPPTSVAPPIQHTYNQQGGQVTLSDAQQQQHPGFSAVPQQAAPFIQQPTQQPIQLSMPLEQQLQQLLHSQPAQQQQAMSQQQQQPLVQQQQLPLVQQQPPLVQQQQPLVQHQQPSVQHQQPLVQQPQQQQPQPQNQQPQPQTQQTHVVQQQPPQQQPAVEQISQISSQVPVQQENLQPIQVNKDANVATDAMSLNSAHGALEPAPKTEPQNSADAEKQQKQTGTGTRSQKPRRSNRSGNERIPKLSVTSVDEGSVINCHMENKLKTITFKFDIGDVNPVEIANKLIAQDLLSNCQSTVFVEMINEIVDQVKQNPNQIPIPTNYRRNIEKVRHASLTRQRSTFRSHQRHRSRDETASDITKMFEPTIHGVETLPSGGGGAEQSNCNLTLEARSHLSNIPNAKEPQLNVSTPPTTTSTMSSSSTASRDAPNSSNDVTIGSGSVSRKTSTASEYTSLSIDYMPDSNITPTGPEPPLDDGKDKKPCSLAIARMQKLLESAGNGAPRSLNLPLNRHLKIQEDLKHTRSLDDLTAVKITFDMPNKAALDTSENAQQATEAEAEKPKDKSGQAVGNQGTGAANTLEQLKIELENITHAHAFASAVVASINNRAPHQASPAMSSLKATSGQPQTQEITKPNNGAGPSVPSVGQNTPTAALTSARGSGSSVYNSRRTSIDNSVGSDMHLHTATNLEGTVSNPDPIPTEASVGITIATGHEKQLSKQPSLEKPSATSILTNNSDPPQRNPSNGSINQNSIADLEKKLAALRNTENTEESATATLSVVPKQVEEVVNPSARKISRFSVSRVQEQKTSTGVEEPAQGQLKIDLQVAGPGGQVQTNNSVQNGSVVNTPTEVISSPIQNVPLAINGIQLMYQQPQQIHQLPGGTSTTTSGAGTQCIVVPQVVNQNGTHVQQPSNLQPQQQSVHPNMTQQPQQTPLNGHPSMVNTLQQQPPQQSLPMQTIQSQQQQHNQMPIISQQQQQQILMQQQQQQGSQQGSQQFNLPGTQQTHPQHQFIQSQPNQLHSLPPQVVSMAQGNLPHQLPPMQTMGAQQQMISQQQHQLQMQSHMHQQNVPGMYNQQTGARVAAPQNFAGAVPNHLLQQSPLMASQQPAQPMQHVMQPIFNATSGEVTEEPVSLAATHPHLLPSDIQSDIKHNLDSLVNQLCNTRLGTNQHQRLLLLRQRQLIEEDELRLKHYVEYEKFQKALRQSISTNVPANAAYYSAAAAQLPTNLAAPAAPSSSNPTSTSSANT

In PMC3559379:

Molecular target: Drosophila WNK (HA-DWNK) (Drosophila) (UniProt M9PGC5)
Experiment: co-IP; HA-DWNK and T7-Fray transiently co-expressed in HEK293T cells; cell extracts immunoprecipitated with HA antibody, then immunoblotting

binding: binds
B1: Drosophila Fray (T7-Fray) (enzyme, UniProt Q9VE62 1-552)
chain: MTSIPANLSSNNVAGAATLPGAAAPPEKYTWPNSKDDYELRDVIGVGATAVVHGAYCIPRNEKCAIKRINLEKWNTSMDELLKEIQAMSSCFHENVVTYHTSFVVREELWLVLRLLEGGSLLDIIKHKMRTSNCKQGVFDEATIATVLKEVLKGLEYFHSNGQIHRDIKAGNILIGDDGTIQIADFGVSAWLATGRDLSRQKVRHTFVGTPCWMAPEVMEQDHGYDFKADIWSFGITAIEMATGTAPYHKYPPMKVLMLTLQNDPPTLDTGADDKDQYKAYGKTFRKMIVECLQKEPSKRPTASELLKHAFFKKAKDRKYLTQTLLQSGPSMETRVHKAAKRQPGASGRLHRTVTGEWVWSSEEEDNGGSATGSGTGDRKHPSSDSDSEDRPMNRLERADSSDSDREEPSPEITHSVSSATVTSGAPAAAGAGAAQELTAGIAQLPLPSEAAGEAPPVNLVLRMRNLRRELHDIRFEFVVGKDTAEGIATELVDAGLVDALDTQPMATHLDQLIAASATMKTITFQLSSGVQPGEVPDERSLVGYAQISITD

These are yes or no findings as the source states them, for the method shown. Binding seen in cells or lysates may run through a third protein. Binding calls can cover weak binding; strength is not graded here.
